Among the data in patent US20220227829A1 are binding values, retold here.

Chains of the proteins cited; added tags and fusions are not shown. Residues count along the entry.
UniProt P60568, residues 21-153: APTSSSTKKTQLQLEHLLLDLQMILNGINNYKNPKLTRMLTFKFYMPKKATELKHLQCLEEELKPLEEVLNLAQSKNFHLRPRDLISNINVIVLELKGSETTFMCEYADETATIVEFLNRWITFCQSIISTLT

These are yes or no findings as the source states them, for the method shown. Some results given as binding are weak or reduced against the parent protein; the word gives no strength.

The assay deals with CD25 protein (from Example 2). Description: ELISA on coated CD25.

Take “rhIL-2, recombinant human interleukin-2 for injection (Quanqi) (from UniProt P60568 21-153) (ligand)”: the binding entry was “binds”.
